From article PMC4538849 come the findings set out here.

The target in assay [1] is wild-type (wt) Miro1 (human) (UniProt Q8IXI2). Nature of the assay: co-IP; transiently transfected Cenp-F fragment and Miro1; the text calls it a pull-down; methods not told.
Assay [2] addresses T1, LexA-fused C-terminal fragment of Cenp-F (amino acids 2977–3020) (UniProt P49454).
T1 sequence: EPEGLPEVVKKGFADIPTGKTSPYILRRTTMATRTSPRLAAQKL
Nature of the assay: two-hybrid; LexA-Cenp-F bait (pEG202), Miro prey (pJG4-5), yeast EGY48 with lacZ reporter pSH18-34, galactose medium, X-gal overlay.

No constants are given. Whether binding was seen depends on the method and setting. For some assays here: Binding seen in cells or lysates may run through a third protein. Some results given as binding are weak or reduced against the parent protein; the word gives no strength. For some assays here: Where a sequence is shown, tags or fusion partners need not be part of it.

B1: Cenp-F fragment (amino acids 2375–3144) (domain or fragment, UniProt P49454 2375-3114)
chain: GMTQSLRGLELDVVTIRSEKENLTNELQKEQERISELEIINSSFENILQEKEQEKVQMKEKSSTAMEMLQTQLKELNERVAALHNDQEACKAKEQNLSSQVECLELEKAQLLQGLDEAKNNYIVLQSSVNGLIQEVEDGKQKLEKKDEEISRLKNQIQDQEQLVSKLSQVEGEHQLWKEQNLELRNLTVELEQKIQVLQSKNASLQDTLEVLQSSYKNLENELELTKMDKMSFVEKVNKMTAKETELQREMHEMAQKTAELQEELSGEKNRLAGELQLLLEEIKSSKDQLKELTLENSELKKSLDCMHKDQVEKEGKVREEIAEYQLRLHEAEKKHQALLLDTNKQYEVEIQTYREKLTSKEECLSSQKLEIDLLKSSKEELNNSLKATTQILEELKKTKMDNLKYVNQLKKENERAQGKMKLLIKSCKQLEEEKEILQKELSQLQAAQEKQKTGTVMDTKVDELTTEIKELKETLEEKTKEADEYLDKYCSLLISHEKLEKAKEMLETQVAHLCSQQSKQDSRGSPLLGPVVPGPSPIPSVTEKRLSSGQNKASGKRQRSSGIWENGRGPTPATPESFSKKSKKAVMSGIHPAEDTEGTEFEPEGLPEVVKKGFADIPTGKTSPYILRRTTMATRTSPRLAAQKLALSPLSLGKENLAESSKPTAGGSRSQKVKVAQRSPVDSGTILREPTTKSVPVNNLPERSPTDSPREGLRVKRGRLVPSPKAGLESNGSENCKVQ
For the molecule B1, the binding entry in assay [1] is listed as “binds”.

B2: Miro1 (without transmembrane domain, amino acids 1–594) (domain or fragment, UniProt Q8IXI2 1-594)
chain: MKKDVRILLVGEPRVGKTSLIMSLVSEEFPEEVPPRAEEITIPADVTPERVPTHIVDYSEAEQSDEQLHQEISQANVICIVYAVNNKHSIDKVTSRWIPLINERTDKDSRLPLILVGNKSDLVEYSSMETILPIMNQYTEIETCVECSAKNLKNISELFYYAQKAVLHPTGPLYCPEEKEMKPACIKALTRIFKISDQDNDGTLNDAELNFFQRICFNTPLAPQALEDVKNVVRKHISDGVADSGLTLKGFLFLHTLFIQRGRHETTWTVLRRFGYDDDLDLTPEYLFPLLKIPPDCTTELNHHAYLFLQSTFDKHDLDRDCALSPDELKDLFKVFPYIPWGPDVNNTVCTNERGWITYQGFLSQWTLTTYLDVQRCLEYLGYLGYSILTEQESQASAVTVTRDKKIDLQKKQTQRNVFRCNVIGVKNCGKSGVLQALLGRNLMRQKKIREDHKSYYAINTVYVYGQEKYLLLHDISESEFLTEAEIICDVVCLVYDVSNPKSFEYCARIFKQHFMDSRIPCLIVAAKSDLHEVKQEYSISPTDFCRKHKMPPPQAFTCNTADAPSKDIFVKLTTMAMYPHVTQADLKSSTFWL
As to B2, the binding entry in assay [2] was “binds”.
